The source of these data is publication PMC3792970, “A Single Nucleotide Polymorphism Associated with Hepatitis C Virus Infections Located in the Distal Region of the IL28B Promoter Influences NF-κB-Mediated Gene Transcription”.

Sequences of proteins named here, by UniProt entry; tags and fusion partners are left off.
UniProt Q04206, whole entry: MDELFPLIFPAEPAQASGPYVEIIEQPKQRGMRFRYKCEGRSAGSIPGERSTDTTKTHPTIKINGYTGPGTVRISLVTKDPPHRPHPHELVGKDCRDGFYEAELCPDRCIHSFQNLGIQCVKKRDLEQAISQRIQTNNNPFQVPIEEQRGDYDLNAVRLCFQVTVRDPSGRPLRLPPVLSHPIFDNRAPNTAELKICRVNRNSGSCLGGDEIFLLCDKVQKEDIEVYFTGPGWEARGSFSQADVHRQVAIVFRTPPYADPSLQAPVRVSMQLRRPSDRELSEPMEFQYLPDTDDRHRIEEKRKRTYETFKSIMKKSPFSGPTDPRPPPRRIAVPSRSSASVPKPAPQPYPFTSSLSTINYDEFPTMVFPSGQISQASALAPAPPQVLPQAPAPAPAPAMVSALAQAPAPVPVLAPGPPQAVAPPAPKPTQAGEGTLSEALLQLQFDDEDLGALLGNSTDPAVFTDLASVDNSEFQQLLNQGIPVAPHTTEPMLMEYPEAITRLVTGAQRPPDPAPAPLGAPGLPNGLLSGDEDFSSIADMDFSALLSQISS

The exact form of at least one protein or probe is not confirmed. Results from cells or extracts need not show a direct contact. For some of these results: At least one verdict was read from the data and is not stated in words by the source.

For data set [1], the system named is NF-kB p50 (overexpressed) + NF-kB p65 (overexpressed). Briefly: EMSA. Conditions: HeLa nuclear extract 2-6 ul, likely NF-kB dimer band, no supershift, EMSA: 1X BB stated as 50 mM Tris pH 8.0, 250 mM KCl, 2.5 mM EDTA, 0.5% Triton X-100, 62.5% glycerol, 1 mM DTT, 1 ug poly(dI:dC), 10 ul, room temperature 30 min, protein in an extract. On the technique in general: A gel shift assay detects complexes by their altered migration in electrophoresis.

The next data set addresses NF-kB p65 (UniProt Q04206). Briefly: pull-down, western blot. The note with it: HEK293T nuclear extract, poly(dI:dC), pull-down: 1X BB, RT 2 h, protein in an extract.

For “CCCCTGCCCTCAGTGGGCAGCCTCTCCATCCCCTCAGCTCCCTTTCTCTCTGTGA (double strand) [C-C (NFC-C849)]”, the binding result (in data set [1] (slightly more than G-T (fold only in figure)); with NF-kB p65) was “binds” in each case.
On to “CCCCTGCCCTCAGTGGGCAGCCTCTGCATTCCCTCAGCTCCCTTTCTCTCTGTGA (double strand) [G-T (NF813G-T)]”, for which the binding result (in data set [1] (slightly less than C-C); with NF-kB p65) was “binds” in each case.
